Experimental data: article PMC7654213
These are yes or no findings as the source states them, for the method shown. Binding seen in cells or lysates may run through a third protein. Binding calls can cover weak binding; strength is not graded here.

Sequences of proteins named here, by UniProt entry; tags and fusion partners are left off. A change or cut given only in a name is not applied to a line headed by its entry.
UniProt P78536: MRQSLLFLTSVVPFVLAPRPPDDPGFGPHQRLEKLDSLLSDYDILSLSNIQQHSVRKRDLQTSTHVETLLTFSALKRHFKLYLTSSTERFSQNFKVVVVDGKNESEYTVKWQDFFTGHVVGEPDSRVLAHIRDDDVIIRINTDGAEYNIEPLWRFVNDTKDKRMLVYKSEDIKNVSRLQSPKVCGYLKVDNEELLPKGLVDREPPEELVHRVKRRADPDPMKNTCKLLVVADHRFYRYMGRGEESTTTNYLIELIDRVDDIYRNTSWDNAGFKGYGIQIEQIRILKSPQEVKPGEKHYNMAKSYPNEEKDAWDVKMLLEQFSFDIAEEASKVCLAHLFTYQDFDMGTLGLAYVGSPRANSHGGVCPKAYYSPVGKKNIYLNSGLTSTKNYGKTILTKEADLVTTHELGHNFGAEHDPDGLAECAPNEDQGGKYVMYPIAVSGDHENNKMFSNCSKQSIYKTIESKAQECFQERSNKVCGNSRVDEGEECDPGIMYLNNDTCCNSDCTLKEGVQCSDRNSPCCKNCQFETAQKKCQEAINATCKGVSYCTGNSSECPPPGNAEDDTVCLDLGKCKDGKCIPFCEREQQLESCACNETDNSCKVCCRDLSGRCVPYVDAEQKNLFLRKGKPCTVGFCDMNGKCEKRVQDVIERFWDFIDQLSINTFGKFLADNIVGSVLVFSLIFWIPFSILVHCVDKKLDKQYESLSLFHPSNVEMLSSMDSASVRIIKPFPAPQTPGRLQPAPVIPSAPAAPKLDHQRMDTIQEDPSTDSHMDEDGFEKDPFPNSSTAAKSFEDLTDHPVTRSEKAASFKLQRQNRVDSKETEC

Target: 2xFlag-ADAM17 (UniProt P78536)
Test: co-IP; 293T cells cotransfected with pcDNA-2xHA-CD82 and pcDNA-2xFlag-ADAM17, harvested after 72 hours; lysis in 50 mM Tris-HCl pH 7.4, 150 mM NaCl, 1 mM EDTA, 1% Triton X-100; primary antibody overnight at 4°C, protein A or G agarose beads, Western blot

binding: binds
B1: 2xHA-CD82 (protein, UniProt P27701 1-267)
chain: MGSACIKVTKYFLFLFNLIFFILGAVILGFGVWILADKSSFISVLQTSSSSLRMGAYVFIGVGAVTMLMGFLGCIGAVNEVRCLLGLYFAFLLLILIAQVTAGALFYFNMGKLKQEMGGIVTELIRDYNSSREDSLQDAWDYVQAQVKCCGWVSFYNWTDNAELMNRPEVTYPCSCEVKGEEDNSLSVRKGFCEAPGNRTQSGNHPEDWPVYQEGCMEKVQAWLQENLGIILGVGVGVAIIELLGMVLSICLCRHVHSEDYSKVPKY
